# The other results are listed elsewhere or left out.
# The chains behind the UniProt entries cited, without tags or fusion partners. Where a name states a change or a piece, a line headed by the entry shows the natural chain unless it says otherwise.
# UniProt Q08J23, whole entry, looked up: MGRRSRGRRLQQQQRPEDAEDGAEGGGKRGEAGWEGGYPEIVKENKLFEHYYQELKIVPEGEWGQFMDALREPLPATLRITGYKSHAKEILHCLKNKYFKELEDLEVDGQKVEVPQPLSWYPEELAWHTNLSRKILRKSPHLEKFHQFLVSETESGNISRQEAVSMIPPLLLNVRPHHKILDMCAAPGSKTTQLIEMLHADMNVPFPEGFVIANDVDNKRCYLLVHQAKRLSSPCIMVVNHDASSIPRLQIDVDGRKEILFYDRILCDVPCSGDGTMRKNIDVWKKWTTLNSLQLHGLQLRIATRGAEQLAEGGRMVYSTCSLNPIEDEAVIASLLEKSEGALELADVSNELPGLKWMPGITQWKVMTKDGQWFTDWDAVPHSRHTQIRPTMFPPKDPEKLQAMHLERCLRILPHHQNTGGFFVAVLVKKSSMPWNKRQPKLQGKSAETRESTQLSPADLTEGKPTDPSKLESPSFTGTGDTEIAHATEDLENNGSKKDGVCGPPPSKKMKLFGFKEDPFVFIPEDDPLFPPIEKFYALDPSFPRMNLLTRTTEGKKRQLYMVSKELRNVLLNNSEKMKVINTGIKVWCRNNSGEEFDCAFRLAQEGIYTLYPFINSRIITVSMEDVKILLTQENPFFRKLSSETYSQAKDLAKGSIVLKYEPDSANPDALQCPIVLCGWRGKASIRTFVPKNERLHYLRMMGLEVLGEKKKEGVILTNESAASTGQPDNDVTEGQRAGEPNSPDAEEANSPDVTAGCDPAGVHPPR
# UniProt Q8NDH3: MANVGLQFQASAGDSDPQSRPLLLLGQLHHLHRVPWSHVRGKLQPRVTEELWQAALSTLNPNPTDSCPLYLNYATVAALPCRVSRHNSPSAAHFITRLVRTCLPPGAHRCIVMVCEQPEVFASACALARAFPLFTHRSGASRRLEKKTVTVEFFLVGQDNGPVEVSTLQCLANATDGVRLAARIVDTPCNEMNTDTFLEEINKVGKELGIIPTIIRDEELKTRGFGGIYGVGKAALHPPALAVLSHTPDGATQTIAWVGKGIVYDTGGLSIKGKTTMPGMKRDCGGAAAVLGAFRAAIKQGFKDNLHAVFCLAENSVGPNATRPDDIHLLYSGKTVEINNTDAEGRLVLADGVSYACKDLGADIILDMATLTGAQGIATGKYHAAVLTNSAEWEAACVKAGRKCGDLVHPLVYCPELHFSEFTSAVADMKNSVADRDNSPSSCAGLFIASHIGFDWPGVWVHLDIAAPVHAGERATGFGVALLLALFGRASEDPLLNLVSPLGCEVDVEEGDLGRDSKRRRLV
# UniProt O75607: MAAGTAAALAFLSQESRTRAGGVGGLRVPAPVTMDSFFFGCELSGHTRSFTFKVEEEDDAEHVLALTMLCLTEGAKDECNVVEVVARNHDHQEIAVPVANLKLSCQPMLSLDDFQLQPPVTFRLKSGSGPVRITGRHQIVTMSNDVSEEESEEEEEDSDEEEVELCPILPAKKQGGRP
# UniProt O00567: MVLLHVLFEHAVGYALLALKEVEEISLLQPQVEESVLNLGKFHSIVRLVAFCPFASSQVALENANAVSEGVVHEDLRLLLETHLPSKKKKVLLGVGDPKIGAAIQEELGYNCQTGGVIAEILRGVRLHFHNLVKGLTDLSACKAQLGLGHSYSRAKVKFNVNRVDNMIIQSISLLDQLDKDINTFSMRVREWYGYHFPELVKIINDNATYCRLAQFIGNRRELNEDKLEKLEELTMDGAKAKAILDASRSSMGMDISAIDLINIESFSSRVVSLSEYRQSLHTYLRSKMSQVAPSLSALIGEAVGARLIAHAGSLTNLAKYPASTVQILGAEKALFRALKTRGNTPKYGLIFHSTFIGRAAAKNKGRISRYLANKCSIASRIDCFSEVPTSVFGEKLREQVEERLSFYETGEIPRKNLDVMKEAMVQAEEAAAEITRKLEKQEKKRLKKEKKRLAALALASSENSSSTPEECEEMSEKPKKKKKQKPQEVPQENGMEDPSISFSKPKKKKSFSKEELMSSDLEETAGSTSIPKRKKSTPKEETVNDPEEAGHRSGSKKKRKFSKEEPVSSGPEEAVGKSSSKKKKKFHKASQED
# UniProt Q9H8H0: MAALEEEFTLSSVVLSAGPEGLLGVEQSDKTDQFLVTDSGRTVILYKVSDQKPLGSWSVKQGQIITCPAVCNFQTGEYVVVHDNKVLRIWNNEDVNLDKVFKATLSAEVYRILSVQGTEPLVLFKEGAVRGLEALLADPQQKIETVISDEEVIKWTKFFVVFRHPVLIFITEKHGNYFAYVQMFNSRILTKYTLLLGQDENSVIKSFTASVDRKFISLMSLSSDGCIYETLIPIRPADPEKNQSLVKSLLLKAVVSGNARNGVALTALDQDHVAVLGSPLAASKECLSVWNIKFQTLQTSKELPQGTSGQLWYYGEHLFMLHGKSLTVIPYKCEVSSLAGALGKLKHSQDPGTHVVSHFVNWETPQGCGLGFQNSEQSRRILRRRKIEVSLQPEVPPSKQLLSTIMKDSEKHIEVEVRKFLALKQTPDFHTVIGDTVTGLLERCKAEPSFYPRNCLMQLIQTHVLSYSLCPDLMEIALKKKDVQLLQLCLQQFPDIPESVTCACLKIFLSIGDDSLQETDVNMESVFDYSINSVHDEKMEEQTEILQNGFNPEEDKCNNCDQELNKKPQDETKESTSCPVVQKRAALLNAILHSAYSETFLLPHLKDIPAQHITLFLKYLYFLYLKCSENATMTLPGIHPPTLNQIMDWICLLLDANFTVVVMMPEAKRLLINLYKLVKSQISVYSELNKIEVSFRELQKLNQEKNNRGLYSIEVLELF
# UniProt Q16656: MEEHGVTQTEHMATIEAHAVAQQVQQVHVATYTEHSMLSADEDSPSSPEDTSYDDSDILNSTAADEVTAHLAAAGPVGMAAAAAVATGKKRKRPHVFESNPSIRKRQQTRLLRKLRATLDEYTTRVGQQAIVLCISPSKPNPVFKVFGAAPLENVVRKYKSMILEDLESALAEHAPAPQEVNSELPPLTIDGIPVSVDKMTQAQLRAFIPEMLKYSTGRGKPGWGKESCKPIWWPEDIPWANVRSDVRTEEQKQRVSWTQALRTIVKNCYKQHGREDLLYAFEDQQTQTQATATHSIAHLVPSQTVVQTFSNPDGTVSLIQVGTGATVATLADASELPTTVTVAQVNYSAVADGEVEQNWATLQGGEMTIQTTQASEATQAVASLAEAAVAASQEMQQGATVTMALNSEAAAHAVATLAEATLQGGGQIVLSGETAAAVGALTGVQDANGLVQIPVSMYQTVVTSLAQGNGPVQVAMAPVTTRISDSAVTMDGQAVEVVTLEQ
# Compound: CC1Cc2ccccc2N1C(=O)C1CCCN(C1)C(=O)CCl (mixture of isomers) [TRIM25 ligand 11 (diastereomer mixture)]
# Test: probe-labelled cysteine peptide fold change vs DMSO (competition) (log2 fold change); higher = less target engagement (more negative = stronger competition)
# Details: THP-1, incubation time: 4 h
# 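Also: competitive chemoproteomic profiling in live THP-1 cells with an iodoacetamide desthiobiotin (IA-DTB) probe, comparing probe-labelled peptide intensities in compound-treated cells against DMSO-treated controls.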
target,measurement,setting,value
NSMAF_Q92636_809_EGTVNIWDLTTATLMHQIPCHSGIVCDTAFSPDSR (UniProt Q92636),probe-labelled cysteine peptide fold change,10 µM,-0.431
same,probe-labelled cysteine peptide fold change,50 µM,0.3
NSUN2_Q08J23_502_KDGVCGPPPSKK (UniProt Q08J23),probe-labelled cysteine peptide fold change,10 µM,-0.178
same,probe-labelled cysteine peptide fold change,50 µM,-0.23
NPEPL1_Q8NDH3_357_LVLADGVSYACK (UniProt Q8NDH3),probe-labelled cysteine peptide fold change,10 µM,-0.118
same,probe-labelled cysteine peptide fold change,50 µM,-0.0773
NPM3_O75607_41_VPAPVTMDSFFFGCELSGHTR (UniProt O75607),probe-labelled cysteine peptide fold change,10 µM,-0.197
same,probe-labelled cysteine peptide fold change,50 µM,0.0189
NOP56_O00567_384_IDCFSEVPTSVFGEK (UniProt O00567),probe-labelled cysteine peptide fold change,10 µM,0.0252
same,probe-labelled cysteine peptide fold change,50 µM,-0.0137
NOL11_Q9H8H0_557_CNNCDQELNK (UniProt Q9H8H0),probe-labelled cysteine peptide fold change,10 µM,0.00569
same,probe-labelled cysteine peptide fold change,50 µM,-0.00426
NRF1_Q16656_134_VGQQAIVLCISPSKPNPVFK (UniProt Q16656),probe-labelled cysteine peptide fold change,10 µM,-0.088
same,probe-labelled cysteine peptide fold change,50 µM,-0.181

# — the supplement of paper PMC12067093, “Discovery and optimisation of a covalent ligand for TRIM25 and its application to targeted protein ubiquitination” (Chemical Science, 2025)
